Results are given in words; binding and its absence hold for the method and conditions named. For some of these results: A result given as binding can be weak or reduced; the word gives no strength.
Key:
[1] = target: human/mouse chimeric CDH3×EpC protein, D4 replaced by mouse sequence; assay: flow cytometry on transfected CHO cells
[2] = target: human/mouse chimeric MSLN protein, epitope section E1 replaced by mouse sequence; assay: flow cytometry on transfected CHO cells
[3] = target: human/mouse chimeric CDH3×EpC protein, D4B replaced by mouse sequence; assay: flow cytometry on transfected CHO cells
[4] = target: human/mouse chimeric MSLN protein, epitope section E5 replaced by mouse sequence; assay: flow cytometry on transfected CHO cells, 5 µg/mL
[5] = target: human/mouse chimeric CDH3×EpC protein, D5C replaced by mouse sequence; assay: flow cytometry on transfected CHO cells, 5 µg/mL
[6] = target: human/mouse chimeric CDH3×EpC protein, D5B replaced by mouse sequence; assay: flow cytometry on transfected CHO cells, 5 µg/mL
[7] = target: human/mouse chimeric CDH3×EpC protein, D2C replaced by mouse sequence; assay: flow cytometry on transfected CHO cells, 5 µg/mL
[8] = target: human/mouse chimeric CDH3×EpC protein, D2A replaced by mouse sequence; assay: flow cytometry on transfected CHO cells, 5 µg/mL
[9] = target: human/mouse chimeric MSLN protein, epitope section E6 replaced by mouse sequence; assay: flow cytometry on transfected CHO cells, 5 µg/mL
[10] = target: human/mouse chimeric MSLN protein, epitope section E3 replaced by mouse sequence; assay: flow cytometry on transfected CHO cells, 5 µg/mL
[11] = target: human/mouse chimeric CDH3×EpC protein, D3B replaced by mouse sequence; assay: flow cytometry on transfected CHO cells, 5 µg/mL
[12] = target: human/mouse chimeric CDH3×EpC protein, D3 replaced by mouse sequence; assay: flow cytometry on transfected CHO cells, 5 µg/mL
[13] = target: human MSLN (mesothelin) (human) (UniProt Q13421); assay: flow cytometry on transfected CHO cells, 5 µg/mL
[14] = target: human/mouse chimeric CDH3×EpC protein, D5 replaced by mouse sequence; assay: flow cytometry on transfected CHO cells, 5 µg/mL
[15] = target: human/mouse chimeric CDH3×EpC protein, D1B replaced by mouse sequence; assay: flow cytometry on transfected CHO cells, 5 µg/mL
[16] = target: human/mouse chimeric CDH3×EpC protein, D4A replaced by mouse sequence; assay: flow cytometry on transfected CHO cells, 5 µg/mL
[17] = target: human/mouse chimeric CDH3×EpC protein, D3C replaced by mouse sequence; assay: flow cytometry on transfected CHO cells, 5 µg/mL
[18] = target: human/mouse chimeric CDH3×EpC protein, D3A replaced by mouse sequence; assay: flow cytometry on transfected CHO cells, 5 µg/mL
[19] = target: human/mouse chimeric CDH3×EpC protein, D2 replaced by mouse sequence; assay: flow cytometry on transfected CHO cells, 5 µg/mL
[20] = target: human/mouse chimeric CDH3×EpC protein, D1 replaced by mouse sequence; assay: flow cytometry on transfected CHO cells, 5 µg/mL
[21] = target: human/mouse chimeric CDH3×EpC protein, D4C replaced by mouse sequence; assay: flow cytometry on transfected CHO cells, 5 µg/mL
[22] = target: human/mouse chimeric CDH3×EpC protein, D1A replaced by mouse sequence; assay: flow cytometry on transfected CHO cells, 5 µg/mL
[23] = target: human/mouse chimeric MSLN protein, epitope section E4 replaced by mouse sequence; assay: flow cytometry on transfected CHO cells, 5 µg/mL
[24] = target: human/mouse chimeric CDH3×EpC protein, D2B replaced by mouse sequence; assay: flow cytometry on transfected CHO cells, 5 µg/mL
[25] = target: human/mouse chimeric CDH3×EpC protein, D5A replaced by mouse sequence; assay: flow cytometry on transfected CHO cells, 5 µg/mL
[26] = target: human/mouse chimeric CDH3×EpC protein, D1C replaced by mouse sequence; assay: flow cytometry on transfected CHO cells, 5 µg/mL
[27] = target: human/mouse chimeric MSLN protein, epitope section E2 replaced by mouse sequence; assay: flow cytometry on transfected CHO cells, 5 µg/mL
[28] = target: human MSLN (mesothelin) (human) (UniProt Q13421); assay: cell-based affinity, fluorescence cytometry on transfected CHO cells
[29] = target: cyno CDH3 (cyno); assay: as above
[30] = target: cyno MSLN (cyno); assay: as above

Protein sequences, listed by entry. Tags and fused reporters are not part of them. Lines headed by an entry give the natural chain unless they say otherwise; changes in a name come on top.
UniProt Q13421: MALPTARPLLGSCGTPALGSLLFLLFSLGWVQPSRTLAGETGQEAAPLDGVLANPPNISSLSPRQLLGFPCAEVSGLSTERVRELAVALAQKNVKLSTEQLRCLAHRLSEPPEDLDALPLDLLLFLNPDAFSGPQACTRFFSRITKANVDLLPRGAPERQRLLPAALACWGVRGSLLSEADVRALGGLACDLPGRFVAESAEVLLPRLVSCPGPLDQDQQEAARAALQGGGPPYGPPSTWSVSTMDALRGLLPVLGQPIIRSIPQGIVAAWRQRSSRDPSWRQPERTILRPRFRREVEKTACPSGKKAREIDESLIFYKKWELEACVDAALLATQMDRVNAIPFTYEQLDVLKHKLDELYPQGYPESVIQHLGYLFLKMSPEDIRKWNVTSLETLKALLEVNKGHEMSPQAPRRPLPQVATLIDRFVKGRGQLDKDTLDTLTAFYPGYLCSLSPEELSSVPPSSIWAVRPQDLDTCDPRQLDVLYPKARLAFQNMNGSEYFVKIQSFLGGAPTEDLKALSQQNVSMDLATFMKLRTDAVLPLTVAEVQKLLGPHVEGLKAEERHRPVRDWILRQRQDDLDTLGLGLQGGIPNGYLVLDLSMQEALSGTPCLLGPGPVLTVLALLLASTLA

B1: CH3 15-E11 VAG CC×I2L×G4×scFc×MS 15-B12 CC×I2L clipopt ID (SEQ ID NO 434) (bispecific antibody)
chain: QVQLVQSGAEVKKPGASVKVSCKASGYTFTNYWMNWVRQAPGQCLEWMGNIAYGVAGTNYNQKFQGRVTMTVDTSSSTAYMELSRLRSDDTAVYYCATRYFYVMDYWGQGTLVTVSSGGGGQGGGGQGGGGQDIQMTQSPSSLSASVGDRVTITCRASQDISNYLNWYQQKPGKVPKLLIYYTSRLHSGVPSRFSGSGSGTDFTLTISSLQPEDVATYYCVQYAQFPLTFGCGTKVEIKSGGGGQEVQLVESGGGLVQPGGSLKLSCAASGFTFNKYAMNWVRQAPGKGMEWVARIRSKYNNYATYYADAVKDRFTISRDDSKNTLYLQMNNLKTEDTAVYYCVRAGNFGSSYISYFAYWGQGTLVTVSSGGGGQGGGGQGGGGQQTVVTQEPSLTVSPGGTVTITCGSSTGAVTSGNYPNWIQKKPGQAPRGLIGGTKFLAPGTPARFSGSLEGGKAALTLSGVQPEDEAEYYCVLYYSNRWVFGSGTKLTVLGGGGCPPCPAPELLGGPSVFLFPPKPKDTLMISRTPEVTCVVVDVSHEEPEVKFNWYVDGVEVHNAKTKPCEEQYGSTYRCVSVLTVLHQDWLNGKEYKCKVSNKALPAPIEKTISKAKGQPREPQVYTLPPSREEMTKNQVSLTCLVKGFYPSDIAVEWESNGQPENNYKTTPPVLDSDGSFFLYSKLTVDKSRWQQGNVFSCSVMHEALHNHYTQKSLSLSPGKGGGGQGGGGQGGGGQGGGGQGGGGQGGGGQCPPCPAPELLGGPSVFLFPPKPKDTLMISRTPEVTCVVVDVSHEEPEVKFNWYVDGVEVHNAKTKPCEEQYGSTYRCVSVLTVLHQDWLNGKEYKCKVSNKALPAPIEKTISKAKGQPREPQVYTLPPSREEMTKNQVSLTCLVKGFYPSDIAVEWESNGQPENNYKTTPPVLDSDGSFFLYSKLTVDKSRWQQGNVFSCSVMHEALHNHYTQKSLSLSPGKGGGGQVQLQESGPGLVKPSETLSLTCTVSGGSISSSSYFWGWIRQPPGKCLEWIGNIYYSGSSNYNPSLKSRVTISVDTSKNQFSLKLSSVTAADTAVYYCARLPRGDRDAFDIWGQGTMVTVSSGGGGQGGGGQGGGGQDIVMTQSPSSLSASVGDRVTITCRASQGISNYLAWYQQKPGKVPKLLIYAASTLQSGVPSRFSGSGSGTDFTLTISSLQPEDFATYYCQQSYSTPFTFGCGTKVEIKSGGGGQEVQLVESGGGLVQPGGSLKLSCAASGFTFNKYAMNWVRQAPGKGMEWVARIRSKYNNYATYYADAVKDRFTISRDDSKNTLYLQMNNLKTEDTAVYYCVRAGNFGSSYISYFAYWGQGTLVTVSSGGGGQGGGGQGGGGQQTVVTQEPSLTVSPGGTVTITCGSSTGAVTSGNYPNWIQKKPGQAPRGLIGGTKFLAPGTPARFSGSLEGGKAALTLSGVQPEDEAEYYCVLYYSNRWVFGSGTKLTVL
binding [1]: no binding (tested: 5 µg/mL)
binding [2]: no binding (tested: 5 µg/mL)
binding [3]: no binding (tested: 5 µg/mL)
binding [4]: binds
binding [5]: binds
binding [6]: binds
binding [7]: binds
binding [8]: binds
binding [9]: binds
binding [10]: binds
binding [11]: binds
binding [12]: binds
binding [13]: binds
binding [14]: binds
binding [15]: binds
binding [16]: binds
binding [17]: binds
binding [18]: binds
binding [19]: binds
binding [20]: binds
binding [21]: binds
binding [22]: binds
binding [23]: binds
binding [24]: binds
binding [25]: binds
binding [26]: binds
binding [27]: binds
binding [28]: binds
binding [29]: binds
binding [30]: binds

B2: CH3 15-E11 CC×I2L×G4×scFc×G4×MS 15-B12 CC×I2L_GQ (SEQ ID NO 251) (bispecific antibody)
chain: QVQLVQSGAEVKKPGASVKVSCKASGYTFTNYWMNWVRQAPGQCLEWMGNIAYGVKGTNYNQKFQGRVTMTVDTSSSTAYMELSRLRSDDTAVYYCATRYFYVMDYWGQGTLVTVSSGGGGQGGGGQGGGGQDIQMTQSPSSLSASVGDRVTITCRASQDISNYLNWYQQKPGKVPKLLIYYTSRLHSGVPSRFSGSGSGTDFTLTISSLQPEDVATYYCVQYAQFPLTFGCGTKVEIKSGGGGQEVQLVESGGGLVQPGGSLKLSCAASGFTFNKYAMNWVRQAPGKGMEWVARIRSKYNNYATYYADAVKDRFTISRDDSKNTLYLQMNNLKTEDTAVYYCVRAGNFGSSYISYFAYWGQGTLVTVSSGGGGQGGGGQGGGGQQTVVTQEPSLTVSPGGTVTITCGSSTGAVTSGNYPNWIQKKPGQAPRGLIGGTKFLAPGTPARFSGSLEGGKAALTLSGVQPEDEAEYYCVLYYSNRWVFGSGTKLTVLGGGGCPPCPAPELLGGPSVFLFPPKPKDTLMISRTPEVTCVVVDVSHEEPEVKFNWYVDGVEVHNAKTKPCEEQYGSTYRCVSVLTVLHQDWLNGKEYKCKVSNKALPAPIEKTISKAKGQPREPQVYTLPPSREEMTKNQVSLTCLVKGFYPSDIAVEWESNGQPENNYKTTPPVLDSDGSFFLYSKLTVDKSRWQQGNVFSCSVMHEALHNHYTQKSLSLSPGKGGGGQGGGGQGGGGQGGGGQGGGGQGGGGQCPPCPAPELLGGPSVFLFPPKPKDTLMISRTPEVTCVVVDVSHEEPEVKFNWYVDGVEVHNAKTKPCEEQYGSTYRCVSVLTVLHQDWLNGKEYKCKVSNKALPAPIEKTISKAKGQPREPQVYTLPPSREEMTKNQVSLTCLVKGFYPSDIAVEWESNGQPENNYKTTPPVLDSDGSFFLYSKLTVDKSRWQQGNVFSCSVMHEALHNHYTQKSLSLSPGKGGGGQVQLQESGPGLVKPSETLSLTCTVSGGSISSSSYFWGWIRQPPGKCLEWIGNIYYSGSSNYNPSLKSRVTISVDTSKNQFSLKLSSVTAADTAVYYCARLPRGDRDAFDIWGQGTMVTVSSGGGGQGGGGQGGGGQDIVMTQSPSSLSASVGDRVTITCRASQGISNYLAWYQQKPGKVPKLLIYAASTLQSGVPSRFSGSGSGTDFTLTISSLQPEDFATYYCQQSYSTPFTFGCGTKVEIKSGGGGQEVQLVESGGGLVQPGGSLKLSCAASGFTFNKYAMNWVRQAPGKGMEWVARIRSKYNNYATYYADAVKDRFTISRDDSKNTLYLQMNNLKTEDTAVYYCVRAGNFGSSYISYFAYWGQGTLVTVSSGGGGQGGGGQGGGGQQTVVTQEPSLTVSPGGTVTITCGSSTGAVTSGNYPNWIQKKPGQAPRGLIGGTKFLAPGTPARFSGSLEGGKAALTLSGVQPEDEAEYYCVLYYSNRWVFGSGTKLTVL
binding [2]: no binding (tested: 5 µg/mL)
binding [4]: binds
binding [9]: binds
binding [10]: binds
binding [13]: binds
binding [23]: binds
binding [27]: binds
binding [28]: binds
binding [29]: binds
binding [30]: binds

Reference: patent publication US20240209078A1
